Drawing on article PMC9522936, “Regain flood adaptation in rice through a 14-3-3 protein OsGF14h” (Nature Communications, 2022), this text covers binding for 5 molecules.

For assay [1], the target named is T1, OsGF14h^SN9816-GFP (pBWA(V)HS-OsGF14h-GFP) (rice (Oryza sativa), japonica variety Shennong9816) (UniProt Q2R1D5).
T1 sequence: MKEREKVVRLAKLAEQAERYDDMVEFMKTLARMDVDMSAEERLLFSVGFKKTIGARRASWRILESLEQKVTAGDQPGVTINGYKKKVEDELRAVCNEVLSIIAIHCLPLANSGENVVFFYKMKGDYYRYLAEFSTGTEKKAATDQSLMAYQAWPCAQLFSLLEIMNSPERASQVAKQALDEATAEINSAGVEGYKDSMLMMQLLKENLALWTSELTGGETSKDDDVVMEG
The assay can be described thus: co-IP; OsGF14h-GFP and 3×FLAG-HOX3 or 3×FLAG-VP1 co-expressed in N. benthamiana leaves; GFP-Trap agarose 2 h; washes in 10 mM Tris-HCl pH 8.0, 150 mM NaCl, 0.5 mM EDTA, 2 mM DTT, 0.1% NP-40; anti-FLAG blot.

Assay [2] concerns the target T2, OsGF14h^SN9816 (pGBKT7-OsGF14h, two-hybrid bait) (rice (Oryza sativa), japonica variety Shennong9816) (UniProt Q2R1D5).
T2 sequence: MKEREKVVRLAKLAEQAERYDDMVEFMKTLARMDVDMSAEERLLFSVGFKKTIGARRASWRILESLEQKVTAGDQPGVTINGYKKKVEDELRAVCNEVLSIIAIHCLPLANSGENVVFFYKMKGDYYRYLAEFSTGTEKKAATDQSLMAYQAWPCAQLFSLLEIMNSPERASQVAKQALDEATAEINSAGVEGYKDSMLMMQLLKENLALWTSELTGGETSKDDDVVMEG
The assay can be described thus: two-hybrid; pairwise, pGBKT7-OsGF14h with pGADT7-OsHOX3 or pGADT7-VP1 in strain Y2H Gold; growth on SD/-Leu-Trp-His-Ade.

The next assay deals with T3, GST-OsVP1 (rice) (UniProt P37398).
T3 sequence: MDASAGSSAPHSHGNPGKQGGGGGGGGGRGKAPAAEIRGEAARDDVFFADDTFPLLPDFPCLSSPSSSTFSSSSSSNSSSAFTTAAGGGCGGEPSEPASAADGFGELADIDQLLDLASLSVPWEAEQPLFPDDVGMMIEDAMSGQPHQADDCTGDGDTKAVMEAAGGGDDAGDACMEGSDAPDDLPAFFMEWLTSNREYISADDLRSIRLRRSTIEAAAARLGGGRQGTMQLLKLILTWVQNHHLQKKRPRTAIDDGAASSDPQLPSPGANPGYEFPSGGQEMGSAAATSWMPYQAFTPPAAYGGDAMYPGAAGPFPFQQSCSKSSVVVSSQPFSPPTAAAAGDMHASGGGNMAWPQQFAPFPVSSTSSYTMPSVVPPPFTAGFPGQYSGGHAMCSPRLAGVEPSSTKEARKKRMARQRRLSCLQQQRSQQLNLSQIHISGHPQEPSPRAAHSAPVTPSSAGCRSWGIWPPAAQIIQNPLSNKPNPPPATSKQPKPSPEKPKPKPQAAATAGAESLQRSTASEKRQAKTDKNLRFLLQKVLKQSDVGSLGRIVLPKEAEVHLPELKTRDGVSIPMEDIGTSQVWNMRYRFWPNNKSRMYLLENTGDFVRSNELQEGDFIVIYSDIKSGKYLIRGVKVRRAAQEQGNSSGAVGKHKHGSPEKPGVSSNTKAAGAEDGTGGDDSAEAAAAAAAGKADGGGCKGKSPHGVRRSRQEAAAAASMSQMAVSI
In words: pull-down; GST-OsHOX3 or GST-OsVP1 as bait on GST beads, equal quantities of recombinant proteins in GST pull-down buffer at 4 °C overnight, His-OsGF14h detected by anti-His; both purified.

Results are given in words; binding and its absence hold for the method and conditions named. For some assays here: Binding seen in cells or lysates may run through a third protein. Some entries that bind do so weakly or less than the wild type. For some assays here: Where a sequence is shown, tags or fusion partners need not be part of it.

B1: 3×FLAG-HOX3 (pBWA(V)HS-3×FLAG-HOX3) (protein, UniProt Q0JKX1 1-229)
chain: MMGATSPSGLELTMAVPGLSSSGSEGAGCNNNNAGGGCNMRDLDINQPASGGEEEEFPMGSVEEDEEERGVGGPHRPKKLRLSKEQSRLLEESFRLNHTLTPKQKEALAIKLKLRPRQVEVWFQNRRARTKLKQTEMECEYLKRCFGSLTEENRRLQREVEELRAMRVAPPTVLSPHTRQPLPASALTMCPRCERITAATGPPAVRPPPSSAAAAAPSPFHPRRPSAAF
Take B1: the binding entry in assay [1] is given as “binds”.

B2: OsHOX3 (pGADT7-OsHOX3, two-hybrid prey) (protein, UniProt Q0JKX1 1-229)
chain: MMGATSPSGLELTMAVPGLSSSGSEGAGCNNNNAGGGCNMRDLDINQPASGGEEEEFPMGSVEEDEEERGVGGPHRPKKLRLSKEQSRLLEESFRLNHTLTPKQKEALAIKLKLRPRQVEVWFQNRRARTKLKQTEMECEYLKRCFGSLTEENRRLQREVEELRAMRVAPPTVLSPHTRQPLPASALTMCPRCERITAATGPPAVRPPPSSAAAAAPSPFHPRRPSAAF
As to B2, the binding entry in assay [2] is “binds”.

B3: 3×FLAG-VP1 (pBWA(V)HS-3×FLAG-VP1) (protein, UniProt P37398 1-727)
chain: MDASAGSSAPHSHGNPGKQGGGGGGGGGRGKAPAAEIRGEAARDDVFFADDTFPLLPDFPCLSSPSSSTFSSSSSSNSSSAFTTAAGGGCGGEPSEPASAADGFGELADIDQLLDLASLSVPWEAEQPLFPDDVGMMIEDAMSGQPHQADDCTGDGDTKAVMEAAGGGDDAGDACMEGSDAPDDLPAFFMEWLTSNREYISADDLRSIRLRRSTIEAAAARLGGGRQGTMQLLKLILTWVQNHHLQKKRPRTAIDDGAASSDPQLPSPGANPGYEFPSGGQEMGSAAATSWMPYQAFTPPAAYGGDAMYPGAAGPFPFQQSCSKSSVVVSSQPFSPPTAAAAGDMHASGGGNMAWPQQFAPFPVSSTSSYTMPSVVPPPFTAGFPGQYSGGHAMCSPRLAGVEPSSTKEARKKRMARQRRLSCLQQQRSQQLNLSQIHISGHPQEPSPRAAHSAPVTPSSAGCRSWGIWPPAAQIIQNPLSNKPNPPPATSKQPKPSPEKPKPKPQAAATAGAESLQRSTASEKRQAKTDKNLRFLLQKVLKQSDVGSLGRIVLPKEAEVHLPELKTRDGVSIPMEDIGTSQVWNMRYRFWPNNKSRMYLLENTGDFVRSNELQEGDFIVIYSDIKSGKYLIRGVKVRRAAQEQGNSSGAVGKHKHGSPEKPGVSSNTKAAGAEDGTGGDDSAEAAAAAAAGKADGGGCKGKSPHGVRRSRQEAAAAASMSQMAVSI
On to B3, for which, in assay [1], the binding entry is recorded as “binds”.

B4: OsVP1 (pGADT7-VP1, two-hybrid prey) (protein, UniProt P37398 1-727)
chain: MDASAGSSAPHSHGNPGKQGGGGGGGGGRGKAPAAEIRGEAARDDVFFADDTFPLLPDFPCLSSPSSSTFSSSSSSNSSSAFTTAAGGGCGGEPSEPASAADGFGELADIDQLLDLASLSVPWEAEQPLFPDDVGMMIEDAMSGQPHQADDCTGDGDTKAVMEAAGGGDDAGDACMEGSDAPDDLPAFFMEWLTSNREYISADDLRSIRLRRSTIEAAAARLGGGRQGTMQLLKLILTWVQNHHLQKKRPRTAIDDGAASSDPQLPSPGANPGYEFPSGGQEMGSAAATSWMPYQAFTPPAAYGGDAMYPGAAGPFPFQQSCSKSSVVVSSQPFSPPTAAAAGDMHASGGGNMAWPQQFAPFPVSSTSSYTMPSVVPPPFTAGFPGQYSGGHAMCSPRLAGVEPSSTKEARKKRMARQRRLSCLQQQRSQQLNLSQIHISGHPQEPSPRAAHSAPVTPSSAGCRSWGIWPPAAQIIQNPLSNKPNPPPATSKQPKPSPEKPKPKPQAAATAGAESLQRSTASEKRQAKTDKNLRFLLQKVLKQSDVGSLGRIVLPKEAEVHLPELKTRDGVSIPMEDIGTSQVWNMRYRFWPNNKSRMYLLENTGDFVRSNELQEGDFIVIYSDIKSGKYLIRGVKVRRAAQEQGNSSGAVGKHKHGSPEKPGVSSNTKAAGAEDGTGGDDSAEAAAAAAAGKADGGGCKGKSPHGVRRSRQEAAAAASMSQMAVSI
For the molecule B4, in assay [2], the binding entry is given as “binds”.

B5: His-OsGF14h^SN9816 (protein, UniProt Q2R1D5 1-230)
chain: MKEREKVVRLAKLAEQAERYDDMVEFMKTLARMDVDMSAEERLLFSVGFKKTIGARRASWRILESLEQKVTAGDQPGVTINGYKKKVEDELRAVCNEVLSIIAIHCLPLANSGENVVFFYKMKGDYYRYLAEFSTGTEKKAATDQSLMAYQAWPCAQLFSLLEIMNSPERASQVAKQALDEATAEINSAGVEGYKDSMLMMQLLKENLALWTSELTGGETSKDDDVVMEG
In the case of B5, the binding result with GST-OsVP1 (rice) is given as “binds”.
